For this experiment, the target named is TaNF-YC6-B in the bait vector pGBKT7 (yeast two-hybrid) (hexaploid wheat (T. aestivum)). The experiment can be described thus: two-hybrid.

Results are given in words; binding and its absence hold for the method and conditions named. Binding can be weak; no strength is given.

For the substance “TaNF-YA3-D in the prey vector pGADT7 (yeast two-hybrid) (from UniProt A0A9R1KIN5)”, the binding result is “binds”.

These data come from doi:10.1101/2023.12.26.573020.
